The nature of this assay: qHTS Assay to Find Inhibitors of Chronic Active B-Cell Receptor Signaling. Conditions: ABC-DLBCL IkBa-CBG/CBR reporter, luminescence ratio (green luciferase fused to IkBa over red control in TMD8 lymphoma cells), 4 h. A digest of the protocol:
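Concentration-response series (up to 46 uM) were applied to TMD8 dual-reporter cells for 4 h at 37C with doxycycline. Green/red ratio, after filter-overlap correction, defined %Activity; red signal alone was normalised to basal cells and zero luminescence.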
(In general: In qHTS, concentration-response curves come from the screen itself.)

Setting [1] is: measured here: CBR red luminescence, cell number.
The mark [2] stands for this setting: measured here: IkBa-CBG green luminescence.

The list shows a part of the results. The main result of the screen is listed elsewhere. These columns were measured beside it and carry no call. The list favours compounds with an active or inconclusive main result. Words in brackets tell the shape of the fitted curve; partial curves, single points and poor fits give uncertain potencies.

By AC50 is commonly meant the concentration giving half of the maximal activity seen. Take `Cc1csc2c(SCC(=O)NNC(=O)C(Cl)Cl)ncnc12`: under setting [1], the AC50 is 11.2 µM [rising, partial curve, poor fit].

`O=C(Oc1ccc2c(c1)C(=O)c1ccccc1CO2)c1ccccc1`: the AC50 under setting [1] is 0.92 µM [falling, partial curve, poor fit].

Take `Fc1ccc2[nH]c3c(c2c1)CN(C(=S)NCc1ccccc1)CC3`: the AC50 under setting [1] was 20 µM [falling, single point].

In the case of `C/C(=N\NC(=O)COc1ccc(C)cc1C(C)C)c1cc2ccccc2o1`, the AC50 under setting [1] was 20.6 µM [falling, single point].

Regarding `Cc1c(/C=N/N=C2\CCC3C4CCc5cc(O)ccc5C4CCC23C)cnn1C` (configuration not stated), the AC50 under setting [1] is 32.6 µM [rising, single point].

With `Cc1ccccc1NC(=O)Nc1ccccc1C(N)=O`, under setting [1], the AC50 is 2.51 µM [falling, partial curve, poor fit].

Turning to `N#C/C(=C/c1ccc(OCc2ccc(C(=O)O)cc2)cc1)C(=O)Nc1ccccc1`, under setting [1], the AC50 was 35.5 µM [falling, partial curve, poor fit].

`CCOC(=O)N1CCN(S(=O)(=O)c2ccc(F)c(C(=O)Nc3cc(C)cc(C)c3)c2)CC1`: the AC50 under setting [1] is 20.6 µM [falling, partial curve].

Regarding `C=CC[C@@H](Cc1ccc(F)cc1)C(=O)OC[C@H]1CCCN1C(=O)[C@@H](CC=C)CC(=O)N[C@H](CO)Cc1ccccc1`, under setting [1], the AC50 is 20.6 µM [falling, single point].

Take `COc1ccc(CN2CCN(C(=O)c3cc(C4CC4)nn3-c3ccccc3)CC2)cc1F`: under setting [1], the AC50 was 29.1 µM [falling, single point].

As for `O=C(N/N=C\c1ccc(O)c([N+](=O)[O-])c1)C1COc2ccccc2O1` (configuration not stated), the AC50 by setting is: under setting [1], 22.4 µM [falling, single point]; under setting [2], 4.47 µM [rising, full curve, poor fit].

Turning to `CCCCOC(=O)c1ccc(NC(=O)c2ccccc2OC)cc1`, the AC50 under setting [1] is 20.6 µM [falling, single point].

Take `CC(C)(C)NC(=O)c1ccc2c(c1)N(CC(=O)N1CCCCC1)C(=O)C(C)(C)O2`: under setting [1], the AC50 was 3.16 µM [falling, full curve, poor fit].

Turning to `Cn1c(CCN2CCCCCC2)nc2cc(NC(=O)Nc3ccccc3)ccc21`, the AC50 under setting [1] was 11.2 µM [falling, partial curve, poor fit].

`CCOC(=O)c1c(-c2ccccc2)oc2cc(Br)c(O)c(C=O)c12`: the AC50 under setting [1] is 10 µM [rising, partial curve].

With `O=C(Nc1ccc(S(=O)(=O)N2CCCC2)cc1)c1cccs1`, the AC50 under setting [1] is 35.5 µM [falling, single point].

Take `O=C(Nc1ccc2c(c1)OCCO2)C1c2ccccc2C(=O)N2CCc3ccccc3C12` (configuration not stated): the AC50 under setting [1] was 1.84 µM [rising, full curve, poor fit].

For the compound `O=C(NNC(=S)Nc1ccc(F)cc1)c1ccccc1OC(F)F`, under setting [1], the AC50 is 16.4 µM [falling, partial curve, poor fit].

`CCOC(=O)c1cc(C)sc1NC(=O)C(c1ccccc1)c1ccccc1`: the AC50 under setting [1] was 5.8 µM [rising, full curve, poor fit].

As for `CCc1ccc(NC(=O)CSc2nnc(-c3n[nH]c4ccccc34)n2-c2ccccc2)cc1`, the AC50 under setting [1] was 23.1 µM [rising, single point].

For the compound `COc1cc(C(C)=O)ccc1COc1ccc(C(=O)OCC(N)=O)cc1OC`, the AC50 under setting [1] was 20.6 µM [rising, single point].

Take `COc1ccc(CNc2ccccc2)cc1Br`: the AC50 under setting [1] was 14.6 µM [rising, partial curve].

Take `COc1cccc(C(=O)c2c[nH]c(C(=O)NCc3ccco3)c2)c1`: under setting [1], the AC50 was 18.4 µM [falling, partial curve, poor fit].

On to `O=C(c1ccc2c(c1)OCCO2)C1CCN(C(=O)Nc2ccccc2F)CC1`, for which the AC50 under setting [1] was 22.4 µM [falling, single point].

Regarding `CCc1ccc(CCC(=O)Nc2ncc(Cc3ccccc3Cl)s2)o1`, the AC50 is 9.2 µM [rising, single point] under setting [1] and 5.8 µM [falling, full curve] under setting [2].

Take `CC12CCC(=O)N1C(C(=O)Nc1nccs1)CS2` (configuration not stated): the AC50 under setting [1] is 29.1 µM [falling, single point].

In the case of `Cc1n[nH]c(C)c1N=Nc1cc(Cl)ccc1Cl`, under setting [1], the AC50 is 1.78 µM [rising, full curve, poor fit].

On to `Cc1ccc(NC(=O)C2CCC(CNC(=O)[C@@H]3Cc4ccccc4CN3)CC2)c(C)c1` (some centres not stated), for which the AC50 under setting [1] was 4.47 µM [falling, partial curve].

As for `CCCC(=O)Nc1cc(-c2nc3ncccc3o2)ccc1Cl`, the AC50 under setting [1] was 2.82 µM [rising, partial curve, poor fit].

Regarding `O=[N+]([O-])/C(C(Cl)=C(Cl)Cl)=C(/Sc1ccccc1)N1CCCCC1`, the AC50 under setting [1] is 3.55 µM [falling, partial curve, poor fit].

Consider `Cn1c(C(=O)N2CCN(c3cccc(C(F)(F)F)c3)CC2)cc2sccc21`, for which, under setting [1], the AC50 is 22.4 µM [falling, single point].

Consider `CN(Cc1ccccc1)C(=O)CSc1nnc(-c2ccco2)n1-c1ccccc1`, for which, under setting [1], the AC50 is 25.1 µM [falling, single point].

`CN(C)c1ccc2c(c1)Sc1cc(N(C)C)ccc1N2C(=O)c1ccccc1`: the AC50 under setting [1] is 3.98 µM [rising, full curve, poor fit].

As to `O=C(Oc1ccc(Br)cc1C(=S)N1CCOCC1)c1ccc([N+](=O)[O-])cc1[N+](=O)[O-]`, the AC50 under setting [1] is 11.2 µM [falling, partial curve].

In the case of `O=C(Nc1cccc([N+](=O)[O-])c1)C1C2CCCCC21` (configuration not stated), under setting [1], the AC50 is 11.2 µM [rising, partial curve].

For the compound `O=C(NN1C(=O)/C(=C/c2ccc(O)c([N+](=O)[O-])c2)SC1=S)c1ccccc1Cl`, the AC50 under setting [1] was 35.5 µM [falling, single point] and the AC50 under setting [2] is 15.8 µM [rising, single point].

Consider `Oc1c(Cl)cc(Cl)cc1Sc1cc(Cl)cc(Cl)c1O`, for which the AC50 by setting is: under setting [1], 14.6 µM [falling, single point]; under setting [2], 23.1 µM [rising, single point].

For the compound `Cc1ccc(-c2noc(COc3ccccc3C)n2)cc1`, under setting [1], the AC50 was 29.1 µM [rising, single point].

`COC(=O)C(C(=O)Nc1ccccc1C)C1CCCC1` (configuration not stated): the AC50 under setting [1] was 12.6 µM [rising, single point].

For the compound `COc1ccccc1C1CCN(C(=O)c2ccc(C(C)(C)C)cc2)CC1`, under setting [1], the AC50 was 10 µM [falling, single point].

With `O=C(O)c1ccc2c(=O)n3c(nc2c1)/C(=C/c1cccc(Cl)c1Cl)CC3`, the AC50 under setting [1] was 35.5 µM [rising, single point].

In the case of `O=C1[C@H]2[C@@H](C(=O)N1c1cccc3ccccc13)C1(C(=O)c3ccccc3C1=O)N1CCC[C@@H]21`, the AC50 under setting [1] was 12.6 µM [falling, single point].

On to `S=C(NCc1ccco1)Nc1ccc(Br)cc1Cl`, for which the AC50 under setting [1] is 31.6 µM [falling, single point].

As for `c1ccc(Oc2cc(-n3cncn3)ncn2)cc1`, under setting [1], the AC50 is 20.6 µM [rising, single point].

Take `CCN(CC)C(=O)COc1ccc(-c2nnc(Nc3ccc(OC)c(C(=O)NC)c3)c3ccccc23)cc1`: under setting [1], the AC50 is 5.62 µM [falling, partial curve, poor fit].

With `COc1ccc(OC)c(N/C=C/C(=O)c2ccccc2)c1`, the AC50 under setting [1] is 14.1 µM [falling, partial curve, poor fit].

For the compound `CCOC(=O)c1ccc(N=Cc2nc(-c3ccccc3)oc2OC(C)=O)cc1`, the AC50 under setting [1] was 1.3 µM [falling, partial curve, poor fit].

In the case of `Cc1cccc(NC(=O)NC(=S)NC(=O)c2ccccc2)c1`, under setting [1], the AC50 was 29.1 µM [falling, single point].

Regarding `NC(=O)c1cc2ccccc2o/c1=N\NC(=O)c1ccccc1O`, the AC50 under setting [1] was 2.82 µM [falling, single point].

With `O=c1c(O)c(-c2ccccc2)oc2cc(O)cc(O)c12`, the AC50 under setting [1] was 18.4 µM [falling, partial curve, poor fit].

`CCc1c(C)nc2ccc(Br)cc2c1Cl`: the AC50 under setting [1] is 0.631 µM [rising, full curve, poor fit].

For `Cc1nc(-c2cccc(NC(=O)c3ccc(-n4nccc4C)cc3)c2)cs1`, the AC50 under setting [1] was 14.6 µM [falling, partial curve, poor fit].

For `Cc1ccnn1CCC(=O)N1CCCC(N2CCN(c3cccc(Cl)c3)CC2)C1` (configuration not stated), the AC50 under setting [1] was 6.31 µM [rising, single point].

On to `Cc1ccccc1-n1c(C)cc(/C=C(\C#N)C(=O)NCC2CCCO2)c1C` (configuration not stated), for which the AC50 under setting [1] was 29.1 µM [rising, single point].

As for `COc1cc(OC)cc(C(=O)N2CCN(c3ccccc3F)CC2)c1`, the AC50 under setting [1] was 0.116 µM [falling, full curve, poor fit].

With `Cc1noc(C)c1COc1ccc(C(=O)NCc2cccs2)cc1`, the AC50 reads like this: under setting [1], 29.1 µM [rising, single point]; under setting [2], 20.6 µM [falling, partial curve].

In the case of `CCCOc1cc(C)c(S(=O)(=O)NC2CC(C)(C)NC(C)(C)C2)cc1C`, the AC50 under setting [1] was 1.64 µM [rising, partial curve, poor fit].

In the case of `COc1cccc(CN2CCN(Cc3ccc(OC)c(OC)c3)CC2CCO)c1` (configuration not stated), the AC50 under setting [1] is 0.794 µM [falling, full curve, poor fit].

For the compound `O=c1c(C=NCC2CCCO2)c(-c2ccccc2)[nH]n1-c1ccc([N+](=O)[O-])cc1` (configuration not stated), the AC50 under setting [1] was 0.794 µM [rising, full curve, poor fit].

Regarding `CCN(CC)CCn1c2c(c(SCC(=O)Nc3nc(C)cs3)nc1=O)CCCC2`, the AC50 under setting [1] was 16.4 µM [falling, partial curve, poor fit].

On to `S=C(NC1CCCCC1)N1CCN(c2ccccn2)CC1`, for which the AC50 under setting [1] was 0.366 µM [rising, full curve].

Turning to `C=C(C)C(O)CC/C(C)=C/Cc1c(O)ccc(C(=O)/C=C/c2ccc(O)cc2)c1O` (configuration not stated), the AC50 under setting [1] was 29.1 µM [falling, single point].

The values are drawn from PubChem BioAssay AID493014 (National Center for Advancing Translational Sciences (NCATS), 2011).
